Laboratory results as given in paper doi:10.1101/2021.12.02.470903.
Results are given in words; binding and its absence hold for the method and conditions named. Binding seen in cells or lysates may run through a third protein. These calls come from enrichment with a bait or labelling near it, and not all partners need be listed. Sequences can lack the tags named with a protein.

Chains of the proteins cited; added tags and fusions are not shown.
UniProt Q0WLB5: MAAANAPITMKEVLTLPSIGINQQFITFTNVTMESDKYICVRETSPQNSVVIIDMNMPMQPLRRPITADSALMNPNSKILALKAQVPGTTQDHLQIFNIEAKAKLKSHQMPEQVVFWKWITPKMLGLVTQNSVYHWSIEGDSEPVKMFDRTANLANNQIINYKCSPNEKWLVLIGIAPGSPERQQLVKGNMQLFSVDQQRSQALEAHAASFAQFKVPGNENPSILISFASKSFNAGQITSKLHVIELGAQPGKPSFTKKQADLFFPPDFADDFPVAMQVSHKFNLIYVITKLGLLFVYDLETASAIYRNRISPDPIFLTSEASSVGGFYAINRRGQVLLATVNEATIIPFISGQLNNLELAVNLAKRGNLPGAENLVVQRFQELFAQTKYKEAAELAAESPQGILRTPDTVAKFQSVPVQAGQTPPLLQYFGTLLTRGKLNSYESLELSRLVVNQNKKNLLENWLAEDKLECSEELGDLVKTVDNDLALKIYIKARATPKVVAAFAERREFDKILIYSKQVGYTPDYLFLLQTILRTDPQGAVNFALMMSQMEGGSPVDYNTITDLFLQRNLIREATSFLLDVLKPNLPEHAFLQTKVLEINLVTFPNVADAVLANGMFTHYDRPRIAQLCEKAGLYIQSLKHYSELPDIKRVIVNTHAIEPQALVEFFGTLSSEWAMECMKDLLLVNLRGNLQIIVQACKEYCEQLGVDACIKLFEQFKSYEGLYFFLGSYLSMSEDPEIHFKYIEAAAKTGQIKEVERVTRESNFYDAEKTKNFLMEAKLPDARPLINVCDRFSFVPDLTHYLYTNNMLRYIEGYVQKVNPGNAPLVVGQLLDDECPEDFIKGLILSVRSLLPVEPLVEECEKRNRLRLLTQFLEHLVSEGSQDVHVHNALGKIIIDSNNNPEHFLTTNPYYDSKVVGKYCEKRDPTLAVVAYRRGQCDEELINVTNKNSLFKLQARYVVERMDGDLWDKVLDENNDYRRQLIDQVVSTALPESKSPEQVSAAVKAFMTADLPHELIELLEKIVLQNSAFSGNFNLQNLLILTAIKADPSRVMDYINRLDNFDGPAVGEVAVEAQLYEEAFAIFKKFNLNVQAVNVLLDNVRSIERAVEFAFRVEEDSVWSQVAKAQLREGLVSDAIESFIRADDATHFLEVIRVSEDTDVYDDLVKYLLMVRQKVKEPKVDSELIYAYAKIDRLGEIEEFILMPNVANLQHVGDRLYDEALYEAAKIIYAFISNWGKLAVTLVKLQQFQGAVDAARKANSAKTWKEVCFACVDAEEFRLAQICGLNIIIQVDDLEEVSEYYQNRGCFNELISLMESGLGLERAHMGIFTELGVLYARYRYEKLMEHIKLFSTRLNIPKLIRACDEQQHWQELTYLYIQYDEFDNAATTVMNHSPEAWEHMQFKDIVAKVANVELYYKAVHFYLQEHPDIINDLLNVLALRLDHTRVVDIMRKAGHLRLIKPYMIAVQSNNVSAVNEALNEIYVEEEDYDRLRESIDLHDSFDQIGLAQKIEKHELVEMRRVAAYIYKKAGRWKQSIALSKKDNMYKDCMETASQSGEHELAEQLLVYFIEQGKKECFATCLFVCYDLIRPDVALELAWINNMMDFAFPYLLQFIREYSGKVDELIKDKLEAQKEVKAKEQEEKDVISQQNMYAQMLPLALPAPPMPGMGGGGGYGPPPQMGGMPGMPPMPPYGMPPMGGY

Target: T1, CV-HA (CHLOROPLAST VESICULATION with HA tag, DEX-inducible, transgenic DEX-CV-HA plants) (Arabidopsis thaliana) (UniProt Q8S8K8)
T1 sequence: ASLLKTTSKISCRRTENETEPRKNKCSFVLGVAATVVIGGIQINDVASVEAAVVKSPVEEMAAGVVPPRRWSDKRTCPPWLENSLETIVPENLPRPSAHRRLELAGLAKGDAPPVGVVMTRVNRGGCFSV
Assay: affinity purification with mass spectrometry

Row | Substance | binding
1 | …-3-PHOSPHATE DEHYDROGENASE GAPC1, endogenous (from UniProt P25858 1-338) (enzyme) | binds
2 | Clathrin heavy chain 2 (CHC2), endogenous (from UniProt Q0WLB5 1-1703) | binds
